Laboratory results from US9926581B2, “Fagopyritol synthase genes and uses thereof” (Cornell Research Foundation, Inc., priority 2002, dated 2018).

Key:
[1] = test system: soybean explants; test: Soybean explant feeding with 50 mM free cyclitols for one week, soluble carbohydrates in mature seeds; format: in vivo, Glycine max (L.) Merrill cv. Chippewa 64
[2] = test system: soybean explants; test: Soybean explant feeding 3 days with 50 mM cyclitol in 1% sucrose, slow drying time course, soluble carbohydrates in axis, cotyledon, seed coat and leaf
[3] = 3 days transport of sucrose (1%) and D-chiro-inositol (50 mM), after 2 days slow drying, Rep 1
[4] = 3 days transport of sucrose (1%) and D-chiro-inositol (50 mM), after 2 days slow drying, Rep 2
[5] = 3 days transport of sucrose (1%) and D-chiro-inositol (50 mM), after 4 days slow drying, Rep 1
[6] = 3 days transport of sucrose (1%) and D-chiro-inositol (50 mM), after 4 days slow drying, Rep 2
[7] = 3 days transport of sucrose (1%) and D-chiro-inositol (50 mM), after 14 days slow drying, Rep 1
[8] = 3 days transport of sucrose (1%) and D-chiro-inositol (50 mM), after 14 days slow drying, Rep 2
[9] = 3 days transport of sucrose (1%) and D-chiro-inositol (50 mM), before slow drying, Rep 1
[10] = 3 days transport of sucrose (1%) and D-chiro-inositol (50 mM), before slow drying, Rep 2
[11] = 3 days transport of sucrose (1%) and D-pinitol (50 mM), after 2 days slow drying, Rep 1
[12] = 3 days transport of sucrose (1%) and D-pinitol (50 mM), after 2 days slow drying, Rep 2
[13] = 3 days transport of sucrose (1%) and D-pinitol (50 mM), after 4 days slow drying, Rep 1
[14] = 3 days transport of sucrose (1%) and D-pinitol (50 mM), after 4 days slow drying, Rep 2
[15] = 3 days transport of sucrose (1%) and D-pinitol (50 mM), after 14 days slow drying, Rep 1
[16] = 3 days transport of sucrose (1%) and D-pinitol (50 mM), after 14 days slow drying, Rep 2
[17] = 3 days transport of sucrose (1%) and D-pinitol (50 mM), before slow drying, Rep 1
[18] = 3 days transport of sucrose (1%) and D-pinitol (50 mM), before slow drying, Rep 2
[19] = 3 days transport of sucrose (1%) and myo-inositol (50 mM), after 2 days slow drying, Rep 1
[20] = 3 days transport of sucrose (1%) and myo-inositol (50 mM), after 2 days slow drying, Rep 2
[21] = 3 days transport of sucrose (1%) and myo-inositol (50 mM), after 4 days slow drying, Rep 1
[22] = 3 days transport of sucrose (1%) and myo-inositol (50 mM), after 4 days slow drying, Rep 2
[23] = 3 days transport of sucrose (1%) and myo-inositol (50 mM), after 14 days slow drying, Rep 1
[24] = 3 days transport of sucrose (1%) and myo-inositol (50 mM), after 14 days slow drying, Rep 2
[25] = 3 days transport of sucrose (1%) and myo-inositol (50 mM), before slow drying, Rep 1
[26] = 3 days transport of sucrose (1%) and myo-inositol (50 mM), before slow drying, Rep 2
[27] = 3 days transport of sucrose (1%) without cyclitols, after 2 days slow drying, Rep 1
[28] = 3 days transport of sucrose (1%) without cyclitols, after 2 days slow drying, Rep 2
[29] = 3 days transport of sucrose (1%) without cyclitols, after 4 days slow drying, Rep 1
[30] = 3 days transport of sucrose (1%) without cyclitols, after 4 days slow drying, Rep 2
[31] = 3 days transport of sucrose (1%) without cyclitols, after 14 days slow drying, Rep 1
[32] = 3 days transport of sucrose (1%) without cyclitols, after 14 days slow drying, Rep 2
[33] = 3 days transport of sucrose (1%) without cyclitols, before slow drying, Rep 1
[34] = 3 days transport of sucrose (1%) without cyclitols, before slow drying, Rep 2

Question: With `CO[C@H]1[C@H](O)[C@@H](O[C@H]2O[C@H](CO[C@H]3O[C@H](CO)[C@H](O)[C@H](O)[C@H]3O)[C@H](O)[C@H](O)[C@H]2O)[C@@H](O)[C@H](O)[C@@H]1O` [Ciceritol, ciceritol] as the molecule, how does the “change after feeding D-pinitol to explants” value ([1]; axis tissue) read?
Answer: doubled

Question: What about the “increase after feeding D-pinitol to explants” value ([1]; cotyledon tissue) of the same molecule?
Answer: 30%

Question: What about the “Accumulation of soluble carbohydrates in soybean axis” value (from here on “Accumulation … in soybean axis”) [2, 3] of the same molecule?
Answer: 0 μg/axis

Question: What about the “Accumulation of soluble carbohydrates in soybean cotyledon” value [2, 3] of the same molecule?
Answer: 13.35 μg/cotyledon

Question: And the “Accumulation of soluble carbohydrates in soybean seed coat” value [2, 3]?
Answer: 0 μg/seed coat

Question: And the “Accumulation … in soybean axis” value [2, 4]?
Answer: 0 μg/axis

Question: And the “Accumulation of soluble carbohydrates in soybean cotyledon” value [2, 4]?
Answer: 0 μg/cotyledon

Question: What about the “Accumulation of soluble carbohydrates in soybean seed coat” value [2, 4] of the same molecule?
Answer: 0 μg/seed coat

Question: What about the “Accumulation … in soybean axis” value [2, 5] of the same molecule?
Answer: 0 μg/axis

Question: What about the “Accumulation of soluble carbohydrates in soybean cotyledon” value [2, 5] of the same molecule?
Answer: 12.69 μg/cotyledon

Question: What about the “Accumulation of soluble carbohydrates in soybean seed coat” value [2, 5] of the same molecule?
Answer: 0 μg/seed coat

Question: What about the “Accumulation … in soybean axis” value [2, 6] of the same molecule?
Answer: 0.27 μg/axis

Question: What about the “Accumulation of soluble carbohydrates in soybean cotyledon” value [2, 6] of the same molecule?
Answer: 0 μg/cotyledon

Question: And the “Accumulation of soluble carbohydrates in soybean seed coat” value [2, 6]?
Answer: 0 μg/seed coat

Question: What about the “Accumulation … in soybean axis” value [2, 7] of the same molecule?
Answer: 0 μg/axis

Question: And the “Accumulation of soluble carbohydrates in soybean cotyledon” value [2, 7]?
Answer: 3.82 μg/cotyledon

Question: And the “Accumulation of soluble carbohydrates in soybean seed coat” value [2, 7]?
Answer: 0 μg/seed coat

Question: And the “Accumulation … in soybean axis” value [2, 8]?
Answer: 2.69 μg/axis

Question: What about the “Accumulation of soluble carbohydrates in soybean cotyledon” value [2, 8] of the same molecule?
Answer: 2.83 μg/cotyledon

Question: What about the “Accumulation of soluble carbohydrates in soybean seed coat” value [2, 8] of the same molecule?
Answer: 0 μg/seed coat

Question: And the “Accumulation … in soybean axis” value [2, 9]?
Answer: 0 μg/axis

Question: And the “Accumulation of soluble carbohydrates in soybean cotyledon” value [2, 9]?
Answer: 0 μg/cotyledon

Question: And the “Accumulation … in soybean axis” value [2, 10]?
Answer: 0 μg/axis

Question: What about the “Accumulation of soluble carbohydrates in soybean cotyledon” value [2, 10] of the same molecule?
Answer: 6.06 μg/cotyledon

Question: What about the “Accumulation … in soybean axis” value [2, 11] of the same molecule?
Answer: 0 μg/axis

Question: And the “Accumulation of soluble carbohydrates in soybean cotyledon” value [2, 11]?
Answer: 0 μg/cotyledon

Question: What about the “Accumulation of soluble carbohydrates in soybean seed coat” value [2, 11] of the same molecule?
Answer: 0 μg/seed coat

Question: What about the “Accumulation … in soybean axis” value [2, 12] of the same molecule?
Answer: 0.80 μg/axis

Question: And the “Accumulation of soluble carbohydrates in soybean cotyledon” value [2, 12]?
Answer: 2.47 μg/cotyledon

Question: What about the “Accumulation of soluble carbohydrates in soybean seed coat” value [2, 12] of the same molecule?
Answer: 0 μg/seed coat

Question: What about the “Accumulation … in soybean axis” value [2, 13] of the same molecule?
Answer: 0.89 μg/axis

Question: And the “Accumulation of soluble carbohydrates in soybean cotyledon” value [2, 13]?
Answer: 0 μg/cotyledon

Question: What about the “Accumulation of soluble carbohydrates in soybean seed coat” value [2, 13] of the same molecule?
Answer: 0 μg/seed coat

Question: What about the “Accumulation … in soybean axis” value [2, 14] of the same molecule?
Answer: 0.56 μg/axis

Question: And the “Accumulation of soluble carbohydrates in soybean cotyledon” value [2, 14]?
Answer: 3.32 μg/cotyledon

Question: What about the “Accumulation of soluble carbohydrates in soybean seed coat” value [2, 14] of the same molecule?
Answer: 0 μg/seed coat

Question: What about the “Accumulation … in soybean axis” value [2, 15] of the same molecule?
Answer: 1.42 μg/axis

Question: And the “Accumulation of soluble carbohydrates in soybean cotyledon” value [2, 15]?
Answer: 4.88 μg/cotyledon

Question: And the “Accumulation of soluble carbohydrates in soybean seed coat” value [2, 15]?
Answer: 0 μg/seed coat

Question: And the “Accumulation … in soybean axis” value [2, 16]?
Answer: 1.43 μg/axis

Question: What about the “Accumulation of soluble carbohydrates in soybean cotyledon” value [2, 16] of the same molecule?
Answer: 4.85 μg/cotyledon

Question: What about the “Accumulation of soluble carbohydrates in soybean seed coat” value [2, 16] of the same molecule?
Answer: 0 μg/seed coat

Question: And the “Accumulation … in soybean axis” value [2, 17]?
Answer: 0 μg/axis

Question: And the “Accumulation of soluble carbohydrates in soybean cotyledon” value [2, 17]?
Answer: 0 μg/cotyledon

Question: What about the “Accumulation … in soybean axis” value [2, 18] of the same molecule?
Answer: 0 μg/axis

Question: What about the “Accumulation of soluble carbohydrates in soybean cotyledon” value [2, 18] of the same molecule?
Answer: 0 μg/cotyledon

Question: What about the “Accumulation … in soybean axis” value [2, 19] of the same molecule?
Answer: 0 μg/axis

Question: What about the “Accumulation of soluble carbohydrates in soybean cotyledons” value (“Accumulation … in soybean cotyledons” for short) [2, 19] of the same molecule?
Answer: 0 μg/cotyledon

Question: And the “Accumulation of soluble carbohydrates in soybean seed coats” value (shortened to “Accumulation … in soybean seed coats”) [2, 19]?
Answer: 0 μg/seed coat

Question: And the “Accumulation … in soybean axis” value [2, 20]?
Answer: 0 μg/axis

Question: And the “Accumulation … in soybean cotyledons” value [2, 20]?
Answer: 0 μg/cotyledon

Question: And the “Accumulation … in soybean seed coats” value [2, 20]?
Answer: 0 μg/seed coat

Question: What about the “Accumulation … in soybean axis” value [2, 21] of the same molecule?
Answer: 0.39 μg/axis

Question: And the “Accumulation … in soybean cotyledons” value [2, 21]?
Answer: 0 μg/cotyledon

Question: And the “Accumulation … in soybean axis” value [2, 22]?
Answer: 0.42 μg/axis

Question: What about the “Accumulation … in soybean cotyledons” value [2, 22] of the same molecule?
Answer: 0 μg/cotyledon

Question: And the “Accumulation … in soybean seed coats” value [2, 22]?
Answer: 0 μg/seed coat

Question: And the “Accumulation … in soybean axis” value [2, 23]?
Answer: 0.56 μg/axis

Question: And the “Accumulation … in soybean cotyledons” value [2, 23]?
Answer: 2.01 μg/cotyledon

Question: And the “Accumulation … in soybean seed coats” value [2, 23]?
Answer: 0 μg/seed coat

Question: And the “Accumulation … in soybean axis” value [2, 24]?
Answer: 0.29 μg/axis

Question: What about the “Accumulation … in soybean cotyledons” value [2, 24] of the same molecule?
Answer: 0 μg/cotyledon

Question: And the “Accumulation … in soybean seed coats” value [2, 24]?
Answer: 0 μg/seed coat

Question: And the “Accumulation … in soybean axis” value [2, 25]?
Answer: Tr

Question: And the “Accumulation … in soybean cotyledons” value [2, 25]?
Answer: 0 μg/cotyledon

Question: What about the “Accumulation … in soybean axis” value [2, 26] of the same molecule?
Answer: 0 μg/axis

Question: And the “Accumulation … in soybean cotyledons” value [2, 26]?
Answer: 0 μg/cotyledon

Question: And the “Accumulation … in soybean axis” value [2, 27]?
Answer: 0.01 μg/axis

Question: What about the “Accumulation of soluble carbohydrates in soybean cotyledon” value [2, 27] of the same molecule?
Answer: 1.63 μg/cotyledon

Question: What about the “Accumulation … in soybean seed coats” value [2, 27] of the same molecule?
Answer: 0 μg/seed coat

Question: And the “Accumulation … in soybean axis” value [2, 28]?
Answer: 0.07 μg/axis

Question: What about the “Accumulation of soluble carbohydrates in soybean cotyledon” value [2, 28] of the same molecule?
Answer: 0 μg/cotyledon

Question: What about the “Accumulation … in soybean seed coats” value [2, 28] of the same molecule?
Answer: 0 μg/seed coat

Question: What about the “Accumulation … in soybean axis” value [2, 29] of the same molecule?
Answer: 0.80 μg/axis

Question: And the “Accumulation of soluble carbohydrates in soybean cotyledon” value [2, 29]?
Answer: 1.79 μg/cotyledon

Question: What about the “Accumulation … in soybean seed coats” value [2, 29] of the same molecule?
Answer: 0 μg/seed coat

Question: And the “Accumulation … in soybean axis” value [2, 30]?
Answer: 0.71 μg/axis

Question: What about the “Accumulation of soluble carbohydrates in soybean cotyledon” value [2, 30] of the same molecule?
Answer: 2.22 μg/cotyledon

Question: And the “Accumulation … in soybean seed coats” value [2, 30]?
Answer: 0 μg/seed coat

Question: And the “Accumulation … in soybean axis” value [2, 31]?
Answer: 0.94 μg/axis

Question: What about the “Accumulation of soluble carbohydrates in soybean cotyledon” value [2, 31] of the same molecule?
Answer: 10.22 μg/cotyledon

Question: What about the “Accumulation … in soybean seed coats” value [2, 31] of the same molecule?
Answer: 0 μg/seed coat

Question: And the “Accumulation … in soybean axis” value [2, 32]?
Answer: 0.63 μg/axis

Question: And the “Accumulation of soluble carbohydrates in soybean cotyledon” value [2, 32]?
Answer: 4.63 μg/cotyledon

Question: What about the “Accumulation … in soybean seed coats” value [2, 32] of the same molecule?
Answer: 0 μg/seed coat

Question: And the “Accumulation … in soybean axis” value [2, 33]?
Answer: 0 μg/axis

Question: And the “Accumulation of soluble carbohydrates in soybean cotyledon” value [2, 33]?
Answer: 0 μg/cotyledon

Question: And the “Accumulation … in soybean axis” value [2, 34]?
Answer: 0 μg/axis

Question: And the “Accumulation of soluble carbohydrates in soybean cotyledon” value [2, 34]?
Answer: 0 μg/cotyledon
